PubChem BioAssay AID602196, INSERM – 2012
Test: 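Modifiers of cisplatin sensitivity in A549 cells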. Cell system: human A549 lung cancer cells. Reagent: siRNA pair against human genes. Time to read-out: 48 h transfection before cisplatin; time from cisplatin to read-out not stated. Treatment: cisplatin at a dose killing half of control-siRNA cells; exact dose and duration not given. Measurement: 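Shift in cisplatin death relative to control siRNA, from -50 (all cells die) to +50 (no cells die); siRNAs harmful on their own scored 0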. Scale: two-siRNA summed score (-2 to +2): higher = both siRNAs protect from cisplatin killing; -2 means both sensitise. Hit rule: 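Each siRNA scores 0 if harmful alone by LDH or WST-1, otherwise +1 if it reduces and -1 if it increases cisplatin killing; a gene is active when both siRNAs agree (sum +2 or -2)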. Calls: active = both siRNAs shift cisplatin killing the same way; inactive = no consistent shift, or siRNA harmful alone.
Here is an unselected part of about 23,000 deposited reagents. Over the whole deposit, 455 (2%) are marked active. 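Active includes both protection and sensitisation; some change values fall well beyond the stated -50 to +50 range.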 A number with no mark means an inactive call. The numbers tell different reagents against one gene apart. Not all columns of the deposit are shown. Not given: the amount of reagent.

Target gene	reagent no.	two-siRNA summed score (-2 to +2)
LOC401351	1	0
BEND7	1	0
SRD5A2	1	0
SRD5A2	2	0
SUPV3L1	1	1
DMXL2	1	0
LOC441330	1	0
MYCLP1	1	-1
MRFAP1L1	1	0
LOC123688	1	0
PMS2P3	1	0
PNPO	1	-1
ID1	1	0
RNF207	1	0
RNF207	2	1
RRAGB	1	2 (active)
GPX3	1	0
SLC45A2	1	1
MRPL47	1	0
LOC388624	1	0
TRAK2	1	-1
LOC441735	1	1
GRID2IP	1	-1
MIPOL1	1	0
FUT8	1	0
TBX18	1	0
DSPP	1	1
GNA12	1	0
TMEM178A	1	0
TFDP1P2	1	0
KDM8	1	1
DNAAF19	1	0
HNRNPA3	1	0
RGS8	1	0
HECW2	1	0
LOC442615	1	0
RASSF6	1	1
METAP2	1	0
LOC440575	1	0
